Results are given in words; binding and its absence hold for the method and conditions named. In cells and extracts the contact can be indirect. A yes stands for co-enrichment or nearness to the bait. Other partners may have been found.
Target: YTHDF2, bait of the affinity purification in HEK293T cells (UniProt Q9Y5A9)
Assay: affinity purification with mass spectrometry; tandem-affinity purification of the tagged bait from HEK293T cells; bound proteins identified by mass spectrometry

Sequences of proteins named here, by UniProt entry; tags and fusion partners are left off.
UniProt Q9Y5A9: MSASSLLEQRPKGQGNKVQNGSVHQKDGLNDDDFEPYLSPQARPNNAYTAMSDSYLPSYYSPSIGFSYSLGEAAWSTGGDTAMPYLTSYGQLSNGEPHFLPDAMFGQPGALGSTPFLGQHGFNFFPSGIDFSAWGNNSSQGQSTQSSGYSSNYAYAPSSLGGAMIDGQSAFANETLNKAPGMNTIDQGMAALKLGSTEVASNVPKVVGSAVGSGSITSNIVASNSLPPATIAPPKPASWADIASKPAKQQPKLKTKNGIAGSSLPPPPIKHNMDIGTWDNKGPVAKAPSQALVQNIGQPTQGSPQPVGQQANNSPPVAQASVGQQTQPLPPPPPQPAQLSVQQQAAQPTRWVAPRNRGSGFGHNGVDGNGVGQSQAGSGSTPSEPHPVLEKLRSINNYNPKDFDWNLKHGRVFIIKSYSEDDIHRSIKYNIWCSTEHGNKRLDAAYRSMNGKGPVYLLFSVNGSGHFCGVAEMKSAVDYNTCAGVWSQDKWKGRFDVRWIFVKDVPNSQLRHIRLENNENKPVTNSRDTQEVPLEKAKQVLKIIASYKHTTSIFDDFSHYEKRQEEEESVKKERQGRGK
UniProt P48634: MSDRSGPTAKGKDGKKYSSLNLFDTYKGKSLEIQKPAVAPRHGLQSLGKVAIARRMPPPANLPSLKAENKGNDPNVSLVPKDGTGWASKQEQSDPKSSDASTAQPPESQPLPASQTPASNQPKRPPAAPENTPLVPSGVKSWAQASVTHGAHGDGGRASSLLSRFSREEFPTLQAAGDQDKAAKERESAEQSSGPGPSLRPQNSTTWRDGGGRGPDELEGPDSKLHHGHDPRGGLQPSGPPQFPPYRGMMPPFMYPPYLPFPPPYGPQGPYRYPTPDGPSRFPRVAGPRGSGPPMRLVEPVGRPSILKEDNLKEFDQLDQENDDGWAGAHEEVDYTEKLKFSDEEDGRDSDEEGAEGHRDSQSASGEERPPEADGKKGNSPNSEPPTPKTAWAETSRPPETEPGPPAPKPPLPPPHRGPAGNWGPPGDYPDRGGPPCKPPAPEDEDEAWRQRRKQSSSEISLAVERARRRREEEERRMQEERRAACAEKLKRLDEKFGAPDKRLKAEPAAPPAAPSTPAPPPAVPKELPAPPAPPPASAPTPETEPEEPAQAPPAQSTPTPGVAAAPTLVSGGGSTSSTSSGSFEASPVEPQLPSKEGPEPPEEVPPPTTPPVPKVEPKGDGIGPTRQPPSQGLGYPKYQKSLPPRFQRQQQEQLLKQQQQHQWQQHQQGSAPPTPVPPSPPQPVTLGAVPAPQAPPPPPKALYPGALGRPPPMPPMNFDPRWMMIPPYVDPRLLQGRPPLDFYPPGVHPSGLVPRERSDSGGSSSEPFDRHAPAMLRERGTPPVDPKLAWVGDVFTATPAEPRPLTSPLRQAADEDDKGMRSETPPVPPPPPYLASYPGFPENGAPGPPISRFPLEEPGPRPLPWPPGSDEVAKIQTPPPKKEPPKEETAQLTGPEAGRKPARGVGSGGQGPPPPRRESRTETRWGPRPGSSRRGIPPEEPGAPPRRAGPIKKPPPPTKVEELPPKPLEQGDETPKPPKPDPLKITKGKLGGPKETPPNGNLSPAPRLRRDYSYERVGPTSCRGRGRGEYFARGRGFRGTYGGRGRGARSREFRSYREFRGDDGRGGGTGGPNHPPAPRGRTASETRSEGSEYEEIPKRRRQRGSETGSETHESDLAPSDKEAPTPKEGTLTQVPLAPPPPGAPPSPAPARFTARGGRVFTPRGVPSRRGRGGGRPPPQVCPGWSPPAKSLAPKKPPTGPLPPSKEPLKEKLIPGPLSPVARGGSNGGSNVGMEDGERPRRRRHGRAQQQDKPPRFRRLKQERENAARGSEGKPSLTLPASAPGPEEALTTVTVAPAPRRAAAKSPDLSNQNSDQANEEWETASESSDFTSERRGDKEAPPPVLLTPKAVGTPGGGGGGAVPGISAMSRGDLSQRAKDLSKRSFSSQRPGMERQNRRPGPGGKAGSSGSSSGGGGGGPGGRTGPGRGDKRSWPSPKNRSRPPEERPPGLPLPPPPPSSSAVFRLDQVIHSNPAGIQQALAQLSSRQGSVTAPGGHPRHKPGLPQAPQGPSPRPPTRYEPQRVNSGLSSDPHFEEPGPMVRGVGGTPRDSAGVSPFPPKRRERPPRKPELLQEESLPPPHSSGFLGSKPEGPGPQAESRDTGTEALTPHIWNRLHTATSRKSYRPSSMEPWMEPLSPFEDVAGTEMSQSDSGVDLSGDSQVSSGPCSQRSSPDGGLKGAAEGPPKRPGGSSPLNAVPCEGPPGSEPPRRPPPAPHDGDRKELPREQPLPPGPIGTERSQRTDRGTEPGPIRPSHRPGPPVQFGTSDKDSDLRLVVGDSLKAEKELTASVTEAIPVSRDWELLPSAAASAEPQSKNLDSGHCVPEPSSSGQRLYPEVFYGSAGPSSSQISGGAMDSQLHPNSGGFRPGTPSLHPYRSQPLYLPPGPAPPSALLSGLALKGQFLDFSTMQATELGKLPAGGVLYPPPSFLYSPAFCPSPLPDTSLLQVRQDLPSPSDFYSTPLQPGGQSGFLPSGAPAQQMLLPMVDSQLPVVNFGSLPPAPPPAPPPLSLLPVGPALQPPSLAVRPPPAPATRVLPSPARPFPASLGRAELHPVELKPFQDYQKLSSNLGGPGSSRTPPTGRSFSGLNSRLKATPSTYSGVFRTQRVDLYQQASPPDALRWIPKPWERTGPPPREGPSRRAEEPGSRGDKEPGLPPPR

binding: binds
Substance: PRRC2A, endogenous in HEK293T cells (from UniProt P48634 1-2157)
